1 substance from article PMC8913689 can be followed below.

Protein sequences, listed by entry. Tags and fused reporters are not part of them.
UniProt P42866: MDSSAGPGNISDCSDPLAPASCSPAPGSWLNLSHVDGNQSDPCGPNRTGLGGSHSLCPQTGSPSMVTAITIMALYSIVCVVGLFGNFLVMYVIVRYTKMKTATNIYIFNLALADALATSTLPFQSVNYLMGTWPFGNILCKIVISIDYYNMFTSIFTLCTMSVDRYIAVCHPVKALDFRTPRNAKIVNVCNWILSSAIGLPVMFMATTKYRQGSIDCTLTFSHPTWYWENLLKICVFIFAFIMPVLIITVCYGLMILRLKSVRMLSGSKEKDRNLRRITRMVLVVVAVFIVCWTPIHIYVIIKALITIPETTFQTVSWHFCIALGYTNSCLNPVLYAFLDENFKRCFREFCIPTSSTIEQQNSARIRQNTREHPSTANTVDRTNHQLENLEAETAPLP

The assay has as its target HA-μ-Opioid receptor (UniProt P42866). Description: co-IP; lysate of transfected WTT-CHO cells (0.5% DDM, 140 mM NaCl, 2 mM EDTA, 25 mM Tris pH 7.4) immunoprecipitated overnight at 4 °C with anti-HA (16B12) on Protein G Dynabeads; Western blot with anti-HA; SDS-resistant oligomer bands read beside the monomer. A general note: In western blotting, separated proteins are transferred to a membrane and probed.

Results are given in words; binding and its absence hold for the method and conditions named. In cells and extracts the contact can be indirect. Some results given as binding are weak or reduced against the parent protein; the word gives no strength.

Turning to “HA-μ-Opioid receptor (from UniProt P42866 1-398)”, the binding entry is reported as “binds”.
